The assay concerns DBA/2 mice, P1534 leukemia ip, survival T/C. Kind of assay: NCI In Vivo Anticancer Drug Screen. Data for tumor model P1534 Leukemia (intraperitoneal) in DBA/2 mice. As to conditions: T/C endpoint: mean survival time, schedule: Q01DX010 (ip), vehicle: saline, higher T/C = longer survival. The procedure: The antitumor activity of compounds was measured in mice bearing transplantable tumors. Survival or tumor size were measured and the results are expressed as the measurement made in the treated group (T) divided by the measurement made in the vehicle treated control group (C). The tumor model used in this assay is P1534 Leukemia (intraperitoneal) in DBA/2 mice

Data on five molecules can be found in PubChem BioAssay AID314 (DTP/NCI, 2004).

The list does not hold the whole screen: its compounds were picked by chemical class. Other doses and runs of a compound may be missing. T/C: endpoint of the treated group in % of that of the vehicle group. Where survival is the endpoint, the PubChem record calls one and a half times the control and up active, and a quarter to a half above the control has no call in these data; cut-offs in other NCI protocols can differ. Some entries show no survivor count and are marked so; the dose need not have been tolerated. Schedule codes are those of the source, read here as Q, the interval in days (D) or hours (H), X, the number of doses. Marks such as (2×) give the number of equal values in this list. Some entries were tested several times; the results are listed from low to high.

For `O=C(O)CN(CCCl)CCCl`, the T/C (dose: 0.63 mg/kg/injection) was 107 [survivor count not shown] and 110 % of control [survivor count not shown]; the T/C (dose: 1.25 mg/kg/injection) is 117 [survivor count not shown] and 146 % of control [survivor count not shown]; the T/C (dose: 2.5 mg/kg/injection) is 146 % of control [survivor count not shown].
Regarding `NC(Cc1cccc(N(CCCl)CCCl)c1)C(=O)O` (centres undefined), the T/C is, setting by setting: (dose: 0.63 mg/kg/injection) 121 [survivor count not shown] and 138 % of control [survivor count not shown]; (dose: 1.25 mg/kg/injection) 135 [survivor count not shown] and 138 % of control [survivor count not shown]; (dose: 2.5 mg/kg/injection) 92 % of control [survivor count not shown].
In the case of `ClCCN(CCCl)Cc1nc2ccccc2[nH]1`, the T/C (dose: 0.63 mg/kg/injection) was 92 [survivor count not shown] and 103 % of control [survivor count not shown]; the T/C (dose: 1.25 mg/kg/injection) is 100 [survivor count not shown] and 111 % of control [survivor count not shown]; the T/C (dose: 2.5 mg/kg/injection) was 100 [survivor count not shown] and 123 % of control [survivor count not shown]; the T/C (dose: 5.0 mg/kg/injection) was 114 [survivor count not shown] and 146 % of control [survivor count not shown].
Regarding `ClCCNCCCl`, the T/C by setting is: (dose: 5.0 mg/kg/injection) 100 % of control [survivor count not shown] (2×); (dose: 10.0 mg/kg/injection) 100 [survivor count not shown] and 107 % of control [survivor count not shown]; (dose: 18.8 mg/kg/injection) 96 [survivor count not shown] and 111 % of control [survivor count not shown]; (dose: 20.0 mg/kg/injection) 103 [survivor count not shown] and 107 % of control [survivor count not shown]; (dose: 37.5 mg/kg/injection) 114 % of control [survivor count not shown]; (dose: 40.0 mg/kg/injection) 110 [survivor count not shown] and 117 % of control [survivor count not shown].
Regarding `CC(C(=O)O)N(CCCl)CCCl` (centres undefined), the T/C was 114 [survivor count not shown] and 117 % of control [survivor count not shown] (dose: 1.0 mg/kg/injection); 117 [survivor count not shown] and 128 % of control [survivor count not shown] (dose: 2.0 mg/kg/injection); 121 [survivor count not shown] and 139 % of control [survivor count not shown] (dose: 4.0 mg/kg/injection).
